The values that follow come from US20220098681A1.

In this assay the target is T1, G3BP2 (UniProt Q9UN86).
T1 sequence: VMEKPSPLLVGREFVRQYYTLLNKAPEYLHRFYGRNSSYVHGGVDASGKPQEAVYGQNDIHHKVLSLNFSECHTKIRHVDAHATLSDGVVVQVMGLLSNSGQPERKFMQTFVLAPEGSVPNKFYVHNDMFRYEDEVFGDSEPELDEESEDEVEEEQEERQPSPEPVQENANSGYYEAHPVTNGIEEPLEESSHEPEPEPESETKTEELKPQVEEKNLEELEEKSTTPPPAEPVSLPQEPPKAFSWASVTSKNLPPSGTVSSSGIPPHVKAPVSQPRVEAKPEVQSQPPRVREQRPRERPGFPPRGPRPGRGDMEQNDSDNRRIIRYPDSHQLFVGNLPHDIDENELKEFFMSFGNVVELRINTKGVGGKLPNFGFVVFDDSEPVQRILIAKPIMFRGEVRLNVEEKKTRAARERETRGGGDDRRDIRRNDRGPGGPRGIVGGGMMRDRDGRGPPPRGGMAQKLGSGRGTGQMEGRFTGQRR
In words: co-immunoprecipitation in ΔFHL1 cells.

These are yes or no findings as the source states them, for the method shown. Binding seen in cells or lysates may run through a third protein. Some results given as binding are weak or reduced against the parent protein; the word gives no strength.

As to “FLAG-tagged CHIKV nsP3 (pCI-neo-3×FLAG plasmid expressing the CHIKV nsP3) (from UniProt Q8JUX6 1334-1856)”, the binding entry was “binds”.
